Data reported in patent US20260273081A1, “INHIBITORS OF ETS2-ACTIVATING MOLECULES FOR THE TREATMENT OF INFLAMMATORY DISEASES” (The Francis Crick Institute Limited, priority 2023, published 2026).
At least one structure is not confirmed: it was looked up by name or label, or the drawing left a doubt.

System: ETS2-edited inflammatory macrophages (TPP)
Assay: Roxadustat treatment of ETS2-edited TPP macrophages (RNA-seq, functional assays)
Format: cell-based, human
Conditions: Roxadustat 30 μM, 12 hours

**Q.** With Cc1nc(C(=O)NCC(=O)O)c(O)c2ccc(Oc3ccccc3)cc12 [roxadustat] as the molecule, how does the “expression of genes involved in glycolysis and OXPHOS” value read?
**A.** The value was “predicted effect”.

**Q.** And the “rescue of the effects of ETS2 disruption, transcriptionally or functionally” value (phagocytosis, ROS, RNA-seq)?
**A.** Its value is “did not rescue”.
